Results as given in the supplement of paper PMC4749390.
Structures can show the parent of a compound that is named as a salt. Some of the results follow. This data set is noisy: repeats of one test often differ as much as different tests do.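 JEG3 cells stably carry tetracycline-induced wild-type human LRH-1, a heavily sumoylated nuclear receptor. APOC3 and MUC1 are SUMO-sensitive transcripts, raised by SUMO-less LRH-1 or UBC9 knockdown, measured by RT-qPCR against TBP and DMSO controls. A robust Z-score above +2 or below -2 marked a primary hit before toxicity and TBP filtering.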

What follows are compounds tested on JEG3 expressing hLRH-1 (assay: APOC3 transcript change (ddCt vs TBP and DMSO), Z-score over library; higher = higher APOC3 expression). Conditions: 10 µM; time (hr): 24.

SMILES | APOC3 transcript change (Z-score)
c1ccc2c(c1)CCCC2C1=NCCN1 (stereo unspecified) [tetrahydrozoline hydrochloride] | -1.1
NC(=O)C(c1ccccc1)(c1ccccc1)C1CCN(CCc2ccc3c(c2)CCO3)C1 (stereo unspecified) [darifenacin hydrobromide] | -0.171
C[C@]12CCC3c4ccc(O)cc4CCC3C1CC[C@@H]2O (stereo partly specified) [estradiol] | 0.0304
CC(C(=O)O)c1ccc(-c2ccccc2)c(F)c1 (stereo unspecified) [flurbiprofen] | 0.0118
CCCCCCOc1ccccc1C(N)=O [exalamide] | 0.21
CCO/C(O)=C1\C(C)=NC(C)=C(C(=O)OC)C1c1cccc([N+](=O)[O-])c1 (stereo unspecified) [Nitrendipine] | 0.925
CNCCCN1c2ccccc2CCc2ccccc21 [Desipramine hydrochloride] | 0.678
Cc1nc(COP(=O)(O)O)cc2c1[O][Mn][O]c1c(cc(COP(=O)(O)O)nc1C)CN(CC(=O)O)CCN(CC(=O)O)C2 [mangafodipir trisodium] | -0.0126
CO/N=C(\C(=O)N[C@@H]1C(=O)N2C(C(=O)OCOC(=O)C(C)(C)C)=C(/C=C\c3scnc3C)CS[C@H]12)c1csc(N)n1 [cefditorin pivoxil] | 1.01
O=C(OC[C@H]1O[C@@H](OC(=O)c2cc(O)c(O)c(OC(=O)c3cc(O)c(O)c(O)c3)c2)[C@H](OC(=O)c2cc(O)c(O)c(OC(=O)c3cc(O)c(O)c(O)c3)c2)[C@@H](OC(=O)c2cc(O)c(O)c(OC(=O)c3cc(O)c(O)c(O)c3)c2)[C@@H]1OC(=O)c1cc(O)c(O)c(OC(=O)c2cc(O)c(O)c(O)c2)c1)c1cc(O)c(O)c(OC(=O)c2cc(O)c(O)c(O)c2)c1 [tannic acid] | 4.87
CCCCC(=O)O[C@H]1CC[C@H]2[C@@H]3CCc4cc(O)ccc4[C@H]3CC[C@]12C [estradiol valerate] | 0.473
Cc1ccc(Nc2c(F)cccc2Cl)c(CC(=O)O)c1 [lumiracoxib] | -0.95
CCN(Cc1ccncc1)C(=O)C(CO)c1ccccc1 (stereo unspecified) [Tropicamide] | -0.242
O=C1NC(=O)C(c2ccccc2)(c2ccccc2)N1 [Phenytoin sodium] | -0.697
Cc1cccc(C(=O)O)c1O [hydroxytoluic acid] | 0.876
Cc1ccc2c(Br)cc(Br)c(OC(=O)c3ccccc3)c2n1 [broxaldine] | -1.31
CN(C/C=C/C#CC(C)(C)C)Cc1cccc2ccccc12 [terbinafine hydrochloride] | -1.44
CCOc1ccc2ccccc2c1NC(=O)[C@@H]1C(=O)N2C(C(=O)O)C(C)(C)S[C@H]12 (stereo partly specified) [nafcillin sodium] | -0.18
CC(CNCCc1ccc(O)c(O)c1)Cc1cccc(O)c1 (stereo unspecified) [dobutamine hydrochloride] | 0.509
CC1(C)S[C@@H]2[C@H](NC(=O)[C@H](N)c3ccc(O)cc3)C(=O)N2[C@H]1C(=O)O [amoxicillin] | 0.0889
COc1cc(O)cc(C(=O)c2ccccc2)c1S(=O)(=O)O [sulisobenzone] | 0.207

3 entries from above, as tab-separated lines:
SMILES	APOC3 transcript change (Z-score)
O=C1NC(=O)C(c2ccccc2)(c2ccccc2)N1 [Phenytoin sodium]	-0.697
Cc1cccc(C(=O)O)c1O [hydroxytoluic acid]	0.876
Cc1ccc2c(Br)cc(Br)c(OC(=O)c3ccccc3)c2n1 [broxaldine]	-1.31

Following part:

SMILES | APOC3 transcript change (Z-score)
COc1cccc2c1C(=O)c1c(O)c3c(c(O)c1C2=O)C[C@@](O)(C(=O)CO)C[C@@H]3O[C@H]1C[C@H](N)[C@H](O)[C@H](C)O1 [doxorubicin] | 3.49
CCOc1ccccc1C(N)=O [ethenzamide] | -0.513
Nc1nc(/C(=C/CC(=O)O)C(=O)N[C@@H]2C(=O)N3C(C(=O)O)=CCS[C@H]23)cs1 [ceftibuten] | 0.283
CC1(C)S[C@@H]2[C@H](NC(=O)[C@H](NC(=O)N3CCNC3=O)c3ccccc3)C(=O)N2[C@H]1C(=O)O [azlocillin sodium] | -0.0919
CCCCCCCCCc1ccc(OCCOCCOCCOCCOCCOCCOCCOCCOCCO)cc1 [nonoxynol-9] | -0.48
O=C(O)c1cn(C2CC2)c2cc(N3CCNCC3)c(F)cc2c1=O [ciprofloxacin] | -0.515
CN/C(=C\[N+](=O)[O-])NCCSCc1ccc(CN(C)C)o1 [Ranitidine hydrochloride] | -0.196
CC(NCCC(c1ccccc1)c1ccccc1)c1ccccc1 (stereo unspecified) [fendiline hydrochloride] | -4.11
C[N+](C)(C)CCCCCC[N+](C)(C)C [Hexamethonium dichloride] | -1.59
NC(N)=NCCCC(N)C(=O)O (stereo unspecified) [arginine hydrochloride] | -0.13
CN1C(C)(C)CCCC1(C)C [pempidine tartrate] | -0.0976
CN1CCN(C2=Nc3ccccc3Oc3ccc(Cl)cc32)CC1 [Loxapine succinate] | 0.198
CN1CCC[C@@H]1CCO[C@](C)(c1ccccc1)c1ccc(Cl)cc1 [clemastine] | 0.717
COc1ccc(C2Sc3ccccc3N(CCN(C)C)C(=O)C2OC(C)=O)cc1 (stereo unspecified) [diltiazem hydrochloride] | 0.853
CC(=O)Nc1ccccc1 [acetanilide] | -0.361
COc1ccc(CN2CCN(C(c3ccc(F)cc3)c3ccc(F)cc3)CC2)c(OC)c1OC [lomerizine hydrochloride] | -1.96
C#C[C@]1(O)CCC2C3CCc4cc(O)ccc4C3CC[C@@]21C (stereo partly specified) [ethinyl estradiol] | 1.3
O=C1CC[C@@H](C(=O)O)N1 [pidolic acid] | 0.645
CC1(C)[C@@H]2CC[C@@]1(C)C(=O)C2 [camphor (1r)] | -0.139
O=c1[nH]c(=O)n(C2C[C@@H](O)[C@@H](CO)O2)cc1F (stereo partly specified) [floxuridine] | 0.891
